Taken from: PubChem BioAssay AID1259254 (NCATS, 2017)

- Aim: 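Genome-wide screen for genes that prevent DNA re-replication in cancer cells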 (primary screen)
- Cells: human HCT116 colorectal cancer cells
- Reagent: single siRNA against human genes
- Duration: 3 days
- Measurement: 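Nuclei stained with Hoechst and imaged; cell-cycle phase assigned by DNA content; G2 share scaled per plate, non-targeting siRNA 0%, GMNN siRNA 100%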
- Direction: G2 robust z-score and G2 cells, % of GMNN control: higher = more G2 cells, more excess DNA replication; raw share of cells in G2: higher = larger share of cells with G2 DNA content
- Hit rule: 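An siRNA counts as active if its G2 robust z-score lies at least 5 MADs above the screen median; here such calls match roughly 38% of GMNN control or more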
The whole screen tested about 59,000 reagents; below is an unselected part. Of all reagents, about 1,550 (2.6%) are marked active. 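G2 share is only a proxy for re-replication; each gene was hit by three separate siRNAs, and active genes were retested.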 Raw values are not corrected between plates. Entries without a mark were called inactive. The numbers tell different reagents against one gene apart. No sequences are given here. Not stated in the record: the amount of reagent.

Target gene	siRNA no.	G2 robust z-score	G2 cells, % of GMNN control	raw share of cells in G2 (%)
LDLRAD2	1	0.0237	3.13	5.43
LDLRAD2	2	4.59	35.3	21.1
LDLRAD2	3	3.42	27	15.5
IQSEC1	1	-0.556	-0.942	4.9
IQSEC1	2	1.36	12.5	9.16
IQSEC1	3	4.61	35.4	16.3
PDILT	1	3.43	27.1	16.1
PDILT	2	-0.492	-0.492	5.72
PDILT	3	-0.043	2.66	5.68
OXSM	1	-0.383	0.27	6.55
OXSM	2	-0.639	-1.53	3.89
OXSM	3	1.48	13.4	9.91
EMCN	1	-0.111	2.19	4.39
EMCN	2	5.08 (active)	38.7	20.6
EMCN	3	1.23	11.6	7.02
ATAD3A	1	1.12	10.9	8.87
ATAD3A	2	3.57	28.1	18.7
ATAD3A	3	1.01	10	8.04
JUND	1	-1.25	-5.84	2.06
JUND	2	2.14	18.1	11.6
JUND	3	-0.424	-0.0135	5.68
ARFIP2	1	0.607	7.24	6.59
ARFIP2	2	-0.798	-2.64	3.12
ARFIP2	3	0.0986	3.66	7.82
MORC1	1	0.822	8.75	10.1
MORC1	2	-0.712	-2.04	3.32
MORC1	3	-0.233	1.33	4.63
CLECL1	1	0.28	4.94	5.37
CLECL1	2	0.135	3.92	4.27
CLECL1	3	0.326	5.26	4.43
C21orf58	1	-0.558	-0.961	2.87
C21orf58	2	-1.04	-4.33	2.05
C21orf58	3	0.198	4.36	6.11
ZNF280B	1	0.117	3.79	4.4
ZNF280B	2	-0.495	-0.517	2.99
ZNF280B	3	-0.877	-3.2	2.4
TSR1	1	2.2	18.4	11.6
TSR1	2	-0.764	-2.41	3.14
TSR1	3	2.93	23.6	10.7
SPINK1	1	-0.0668	2.5	4.78
SPINK1	2	0.0737	3.49	6.85
SPINK1	3	-0.66	-1.68	3.97

Called active (from the list above):
Target gene	siRNA no.	G2 robust z-score	G2 cells, % of GMNN control	raw share of cells in G2 (%)
EMCN	2	5.08 (active)	38.7	20.6

The results go on:
Target gene	siRNA no.	G2 robust z-score	G2 cells, % of GMNN control	raw share of cells in G2 (%)
LCE2A	1	-1.13	-5	2.18
LCE2A	2	0.266	4.84	5.65
LCE2A	3	-0.608	-1.31	2.69
ACAA1	1	-0.389	0.229	4.08
ACAA1	2	-0.297	0.875	5.02
ACAA1	3	-0.663	-1.7	4.47
ASZ1	1	-0.147	1.93	4.9
ASZ1	2	1.41	12.9	7.19
ASZ1	3	-0.044	2.66	3.54
UBN1	1	-0.451	-0.208	3.92
UBN1	2	1.55	13.9	12.5
UBN1	3	-0.881	-3.23	3.12
KLHL4	1	0.773	8.4	7.45
KLHL4	2	-0.549	-0.898	3.96
KLHL4	3	0.122	3.82	8.11
ARF5	1	-1.23	-5.67	2.79
ARF5	2	-0.578	-1.1	4.68
ARF5	3	0.767	8.36	7.11
MAGEB18	1	-0.0129	2.88	4.69
MAGEB18	2	-0.371	0.355	3.18
MAGEB18	3	-0.00573	2.93	4.16
ACER3	1	0.194	4.33	8.33
ACER3	2	0.38	5.64	6.46
ACER3	3	3.39	26.8	15.5
HMOX2	1	-0.446	-0.173	4.98
HMOX2	2	-0.0319	2.74	6.73
HMOX2	3	-0.61	-1.32	3.72
